Assay results taken from patent US20230330110A1, “HARD CAPSULE DOSAGE FORM AND USES THEREOF” (EIRGEN PHARMA LTD., priority 2020, published 2023).
The name of at least one read-out is uncertain.

Experiment: Stability of calcifediol in acidic dissolution media (Example 4)
Assay type: physicochemical
Method: The stability of calcifediol was tested in acidic dissolution media at ambient/light conditions and also in dark conditions, at 37° C., 20° C., and 10° C., using 30 μg calcifediol extended release capsules.

## C=C1CC[C@H](O)C/C1=C/C=C1\CCC[C@]2(C)[C@@H]([C@H](C)CCCC(C)(C)O)CC[C@@H]12 [calcifediol]
20° C., 20 h
  Acetate buffer, pH = 4.5, Recovery %: 1.11%
20° C., 20 h, neutralized with sodium acetate
  Neutralized HCl buffer, pH = about 4, Recovery %: 0.50%
37° C., 1 h
  Acetate buffer, pH = 4.5, Recovery %: 0.60%
AS (autosampler) 10° C., 20 h
  Acetate buffer, pH = 4.5, Recovery %: 0.34%
Ambient, 20 h
  Acetate buffer, pH = 4.5, Recovery %: 1.88%
